From paper PMC4869175, “Evidence that phytochrome functions as a protein kinase in plant light signalling” (Nature Communications, 2016)

Target: Δ210-PIF3 (APA/APB motif-deleted PIF3)
Test: pull-down; GST/strep-fused interacting protein (1.0 μg) held on glutathione resin, phytochrome (1.0 μg) in solution, Pr and Pfr forms both tested; 60 min at 4 °C in pull-down buffer (100 mM Tris-HCl pH 7.8, 1 mM EDTA, 150 mM NaCl, 100 μg/ml BSA); western blot with oat22 and anti-GST; both purified

B1: Avena sativa phytochrome A, full-length wild type (natural protein, UniProt P06593 1-1129, looked up)
chain: MSSSRPASSSSSRNRQSSQARVLAQTTLDAELNAEYEESGDSFDYSKLVEAQRDGPPVQQGRSEKVIAYLQHIQKGKLIQTFGCLLALDEKSFNVIAFSENAPEMLTTVSHAVPSVDDPPRLGIGTNVRSLFSDQGATALHKALGFADVSLLNPILVQCKTSGKPFYAIVHRATGCLVVDFEPVKPTEFPATAAGALQSYKLAAKAISKIQSLPGGSMEVLCNTVVKEVFDLTGYDRVMAYKFHEDDHGEVFSEITKPGLEPYLGLHYPATDIPQAARLLFMKNKVRMICDCRARSIKVIEAEALPFDISLCGSALRAPHSCHLQYMENMNSIASLVMAVVVNENEEDDEAESEQPAQQQKKKKLWGLLVCHHESPRYVPFPLRYACEFLAQVFAVHVNREFELEKQLREKNILKMQTMLSDMLFREASPLTIVSGTPNIMDLVKCDGAALLYGGKVWRLRNAPTESQIHDIAFWLSDVHRDSTGLSTDSLHDAGYPGAAALGDMICGMAVAKINSKDILFWFRSHTAAEIRWGGAKNDPSDMDDSRRMHPRLSFKAFLEVVKMKSLPWSDYEMDAIHSLQLILRGTLNDASKPKREASLDNQIGDLKLDGLAELQAVTSEMVRLMETATVPILAVDGNGLVNGWNQKAAELTGLRVDDAIGRHILTLVEDSSVPVVQRMLYLALQGKEEKEVRFEVKTHGPKRDDGPVILVVNACASRDLHDHVVGVCFVAQDMTVHKLVMDKFTRVEGDYKAIIHNPNPLIPPIFGADEFGWCSEWNAAMTKLTGWNRDEVLDKMLLGEVFDSSNASCPLKNRDAFVSLCVLINSALAGEETEKAPFGFFDRSGKYIECLLSANRKENEGGLITGVFCFIHVASHELQHALQVQQASEQTSLKRLKAFSYMRHAINNPLSGMLYSRKALKNTDLNEEQMKQIHVGDNCHHQINKILADLDQDSITEKSSCLDLEMAEFLLQDVVVAAVSQVLITCQGKGIRISCNLPERFMKQSVYGDGVRLQQILSDFLFISVKFSPVGGSVEISSKLTKNSIGENLHLIDLELRIKHQGLGVPAELMAQMFEEDNKEQSEEGLSLLVSRNLLRLMNGDVRHLREAGVSTFIITAELASAPTAMGQ
modifications: phycocyanobilin chromophore assembled (chromophore-binding site C322)
notes: Avena sativa (oat) phytochrome A, full-length gene AsPHYA; 1129 residues by the printed construct limits (66-1129aa); Used as Pr (far-red irradiated) and Pfr (red irradiated) forms; also called AsphyA; FL-AsphyA; source: phycocyanobilin added in vitro
  binding: binds weakly

Results are given in words; binding and its absence hold for the method and conditions named. A result given as binding can be weak or reduced; the word gives no strength.
